Experimental data published in patent US8796323B2, “Defensin-like molecules as novel antimicrobial agents” (University of Maryland, Baltimore, priority 2010, dated 2014).
For at least one compound, name, drawing or mass did not settle the structure.

System: Staphylococcus aureus ATCC 29213
Experiment: vCC antibacterial assay, S. aureus
Type: cell-based
Conditions: 30 minutes exposure, 500 to 1.95 μM
Description: The inventors have now tested the bacterial killing capacity of the identified compounds. The antibacterial activity was determined using the vCC assay as discussed in Ericksen, B., Wu, Z., Lu, W. and Lehrer, R. I. (2005), “Antibacterial activity and specificity of the six human {alpha}-defensins. Antimicrob Agents” Chemother 49, 269-75.). All compounds were tested initially for killing of Staphylococcus aureus ATCC 29213. All compounds were dissolved in DiMethylSulfylOxide (DMSO) and exposed to bacteria for 30 minutes in concentrations ranging from 500 to 1.95 μM. Compounds effectively killing S. aureus were subsequently tested against E. coli ATCC 25922 to assay for strain-selectivity.

CN(C)c1ccc(/C=C/c2cc(-c3ccccc3)[o+]c(-c3ccccc3)c2)cc1 [Compound 1499-1221, 2-[(E)-2-[4-(dimethylamino)phenyl]ethenyl)-4,6-diphenyl-pyran-3-ylium]
killing of S. aureus: complete killing of S. aureus
